This is an account of results in patent publication US20060069049A1, “Methods and reagents related to foxo” (President and Fellows of Harvard College, priority 2003, published 2006).

Chains of the proteins cited; added tags and fusions are not shown. Lines headed by an entry give the natural chain unless they say otherwise; changes in a name come on top.
UniProt Q12778: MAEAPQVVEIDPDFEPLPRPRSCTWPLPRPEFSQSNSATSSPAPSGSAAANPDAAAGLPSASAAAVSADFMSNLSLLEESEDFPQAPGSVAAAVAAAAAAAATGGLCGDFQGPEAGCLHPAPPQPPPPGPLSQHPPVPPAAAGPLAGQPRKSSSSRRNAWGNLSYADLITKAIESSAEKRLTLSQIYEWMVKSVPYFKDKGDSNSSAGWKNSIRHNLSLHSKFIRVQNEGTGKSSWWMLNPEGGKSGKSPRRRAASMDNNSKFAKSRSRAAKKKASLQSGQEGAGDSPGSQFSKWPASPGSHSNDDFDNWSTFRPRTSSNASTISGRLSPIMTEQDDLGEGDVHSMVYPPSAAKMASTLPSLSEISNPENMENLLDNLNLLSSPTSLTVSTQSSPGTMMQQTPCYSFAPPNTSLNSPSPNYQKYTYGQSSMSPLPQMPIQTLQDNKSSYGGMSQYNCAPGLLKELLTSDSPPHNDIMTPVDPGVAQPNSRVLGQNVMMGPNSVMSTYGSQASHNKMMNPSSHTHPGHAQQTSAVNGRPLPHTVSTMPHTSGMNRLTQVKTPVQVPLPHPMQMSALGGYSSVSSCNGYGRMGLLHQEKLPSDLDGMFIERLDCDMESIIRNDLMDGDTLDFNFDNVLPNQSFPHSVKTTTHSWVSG

For at least one entry, the source does not settle the construct or the ends of the probe. A negative result means that nothing was seen under these conditions.

The data set addresses FoxO1 (FKHR)-GST fusion (UniProt Q12778). Kind of data set: competition with a labelled probe. Particulars: 100-fold excess did not prevent FoxoGST-IGFBP1 complex; purified recombinant protein; protein details: GST fusion, Upstate.

Consider “ATTCGATCGGGGCGGGGCGAG / CTCGCCCCGCCCCGATCGTAA [SP1 site oligonucleotide]”, for which the binding result is “no binding”.
